Assay results from patent US4740501A (priority 1985, dated 1988).

System: MMTV proteins
Experiment: Intracellular MMTV polypeptides (immune precipitation, NaDodSO4-PAGE)
Format: cell-based, mouse
Conditions: 15 uM
Method: Intracellular MMTV proteins were identified in monolayer cells after 24 or 48 hour exposure to 15 uM PTT.119. Cultures were labeled with 25 uCi/ml of (^3 H)-leucine for the first 24 hours and were then doubly labeled with (^35 S)-methionine when the spent media were replenished. The relative rates of MMTV polypeptide synthesis were determined using parallel cultures continuously-treated with PTT.119 and pulse labeled for 15 minutes with ^35 S-methionine. Following labeling, the cells were washed twice in cold 0.01M phosphate-buffered saline, pH 7.5, and a solution of protease inhibitors added to yield a final concentration of 1 uM pepstatin, 10 ug soybean trypsin inhibitor/ml, and 1 mM N-ethyl maleimide. Cells were then disrupted in 0.05M phosphate buffer containing 0.1M NaCl and 0.1% Triton X-100, pH 7.5 (Pi/NaCl/Triton). Cells were scraped from the substrate and lysis completed by passing the suspensions through a 27 gauge needle five times. Nuclei were removed by centrifugation at 600×g for 10 minutes at 4° C. and 100 ul aliquots of the supernatants mixed with 10 ul preimmune rabbit sera and 50 ul of 10% […] formalin-fixed and heat-killed.
Following a 15 minute incubation at 26° C., the Staphlococcus aureus (Cowan strain) immunoabsorbent was removed by centrifugation at 10,000×g for 1 minute in a Beckman microfuge. Supernatants (100 ul) were sequentially incubated at 26° C. with 33 ul of rabbit anti-MMTV antisera for 25 minutes and 150 ul of 10% S. aureus for 15 minutes. S. aureus was then pelleted and the precipitate washed five times in Pi/NaCl/Triton. Samples were finally resuspended in 20 ul of 1% NaDodSO4 /2-mercaptoethanol, heated for 1 minute at 100° C. to release MMTV proteins, and centrifuged to remove S. aureus. Supernatants were then subjected to NaDodSO4 -PAGE. Samples were disrupted in 1% NaDodSO4 and 1% B-mercaptoethanol at 100° C. for 1 minute electrophoresed on 10-20% polyacrylamide gradient slab gels using a discontinuous buffer system. Electrophoresis of immune precipitates from cell lysates was carried out in a similar manner using 7.5-15% polyacrylamide gradients. Mr of MMTV-related polypeptides were determined by coelectrophoresis of [^14 C]-protein standards (Mr 30,000 to 50,000 Da; New England Nuclear). Radioactivity was determined and the levels associated with MMTV polypeptide peaks quantitated using a generalized curve-fit computer program.

## CCOC(=O)[C@H](CCSC)NC(=O)[C@H](Cc1cccc(N(CCCl)CCCl)c1)NC(=O)[C@@H](N)Cc1ccc(F)cc1.Cl [PTT.119, 3-(p-fluorophenyl)-L-alanyl-3-[m-bis(2-chloroethyl)aminophenyl]-L-alanyl-L-methionine ethyl ester hydrochloride]
24 hr treatment, 15 min pulse labelling, control 58,422
  mean dpm of all intracellular MMTV proteins: 105,814 dpm
24 hr treatment, 24 hr labeling, control 33,881
  mean dpm of all intracellular MMTV proteins: 43,514 dpm
24 hr, 15 min pulse labelling, control 1.8
  Relative level of MMTV-associated radioactivity (%): p24: 1.5%
24 hr, 15 min pulse labelling, control 3.3
  Relative level of MMTV-associated radioactivity (%): p17, p13: 4.7%
24 hr, 15 min pulse labelling, control 12.7
  Relative level of MMTV-associated radioactivity (%): gp60; gp52: 10.6%
24 hr, 15 min pulse labelling, control 82.2
  Relative level of MMTV-associated radioactivity (%): Pr gag/pol: 83.2%
24 hr, 24 hr labeling, control 2.5
  Relative level of MMTV-associated radioactivity (%): p24: 3.8%
24 hr, 24 hr labeling, control 7.2
  Relative level of MMTV-associated radioactivity (%): p17, p13: 7.9%
24 hr, 24 hr labeling, control 15.6
  Relative level of MMTV-associated radioactivity (%): gp60; gp52: 20.2%
24 hr, 24 hr labeling, control 60.9
  Relative level of MMTV-associated radioactivity (%): Pr gag/pol: 60.9%
48 hr treatment, 24 hr labeling, control 62,745
  mean dpm of all intracellular MMTV proteins: 78,973 dpm
48 hr, 15 min pulse labelling, control 3.4
  Relative level of MMTV-associated radioactivity (%): p17, p13: 6.3%
48 hr, 15 min pulse labelling, control 3.5
  Relative level of MMTV-associated radioactivity (%): p24: 3.3%
48 hr, 15 min pulse labelling, control 8.9
  Relative level of MMTV-associated radioactivity (%): gp60; gp52: 10.6%
48 hr, 15 min pulse labelling, control 84.2
  Relative level of MMTV-associated radioactivity (%): Pr gag/pol: 80%
48 hr, 24 hr labeling, control 1.7
  Relative level of MMTV-associated radioactivity (%): p17, p13: 4.3%
48 hr, 24 hr labeling, control 3.5
  Relative level of MMTV-associated radioactivity (%): p24: 2.4%
48 hr, 24 hr labeling, control 19.6
  Relative level of MMTV-associated radioactivity (%): gp60; gp52: 23.6%
48 hr, 24 hr labeling, control 75.2
  Relative level of MMTV-associated radioactivity (%): Pr gag/pol: 69.7%
